These results are taken from the supplement of paper PMC8728848.

Common to all, as to test: glycan array binding signal (z-score within array); higher = stronger binding
What all share (conditions): glycan notation: IUPAC condensed, linker removed

Assay [1] concerns the target Gal(b1-4)GlcNAc(b1-2)Man(a1-3)[Gal(b1-4)GlcNAc(b1-2)Man(a1-6)]Man(b1-4)GlcNAc(b1-4)[Fuc(a1-6)]GlcNAc. Put shortly:
(§1)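 Negative Z-scores can be read as non-binding. The Z-score is calculated within each array and then averaged across arrays of one protein sequence at different concentrations or buffers and across linkers. Arrays, 3228 in all, were curated from the Consortium for Functional Glycomics database and kept only where the protein sequence was available.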

The target of assay [2] is Gal(b1-4)GlcNAc(b1-2)Man(a1-3)[Gal(b1-4)GlcNAc(b1-2)Man(a1-6)][Gal(b1-4)GlcNAc(b1-4)]Man(b1-4)GlcNAc(b1-4)[Fuc(a1-6)]GlcNAc. The method in brief: as §1
The target of assay [3] is Gal(b1-4)GlcNAc(b1-2)Man(a1-3)[Gal(b1-4)GlcNAc(b1-2)Man(a1-6)][GlcNAc(b1-4)]Man(b1-4)GlcNAc(b1-4)[Fuc(a1-6)]GlcNAc. Put shortly: as §1
Assay [4] deals with Gal(b1-4)GlcNAc(b1-2)Man(a1-3)[GlcNAc(b1-2)Man(a1-6)]Man(b1-4)GlcNAc(b1-4)GlcNAc. Put shortly: as §1
Assay [5] addresses Gal(b1-4)GlcNAc(b1-2)Man(a1-3)[GlcNAc(b1-4)][Gal(b1-4)GlcNAc(b1-2)Man(a1-6)]Man(b1-4)GlcNAc(b1-4)GlcNAc. Put shortly:
as §1

Assay [6] addresses Gal(b1-4)GlcNAc(b1-2)Man(a1-3)[Man(a1-6)]Man(b1-4)GlcNAc(b1-4)GlcNAc. Put shortly:
as §1

Assay [7] concerns the target Gal(b1-4)GlcNAc(b1-2)Man(a1-6)Man(b1-4)GlcNAc(b1-4)GlcNAc. Put shortly: as §1
The target in assay [8] is Gal(b1-4)GlcNAc(b1-2)Man(a1-6)[GlcNAc(b1-2)Man(a1-3)]Man(b1-4)GlcNAc(b1-4)GlcNAc. Put shortly:
as §1

For assay [9], the target named is Gal(b1-4)GlcNAc(b1-2)Man(a1-6)[Man(a1-3)]Man(b1-4)GlcNAc(b1-4)GlcNAc. The method in brief:
as §1

Assay [10] has as its target Gal(b1-4)GlcNAc(b1-2)[Gal(b1-4)GlcNAc(b1-4)]Man(a1-3)[Gal(b1-4)GlcNAc(b1-2)Man(a1-6)]Man(b1-4)GlcNAc(b1-4)GlcNAc. The method in brief:
as §1

Assay [11] has as its target Gal(b1-4)GlcNAc(b1-2)[Gal(b1-4)GlcNAc(b1-4)]Man(a1-3)[Gal(b1-4)GlcNAc(b1-2)[Gal(b1-4)GlcNAc(b1-6)]Man(a1-6)]Man(b1-4)GlcNAc(b1-4)GlcNAc. Put shortly:
as §1

Assay [12] deals with Gal(b1-4)GlcNAc(b1-2)[Gal(b1-4)GlcNAc(b1-4)]Man(a1-3)[GlcNAc(b1-4)][Gal(b1-4)GlcNAc(b1-2)Man(a1-6)]Man(b1-4)GlcNAc(b1-4)GlcNAc. The method in brief:
as §1

Assay [13] deals with Gal(b1-4)GlcNAc(b1-2)[Gal(b1-4)GlcNAc(b1-4)]Man(a1-3)[GlcNAc(b1-4)][Gal(b1-4)GlcNAc(b1-2)[Gal(b1-4)GlcNAc(b1-6)]Man(a1-6)]Man(b1-4)GlcNAc(b1-4)GlcNAc. Put shortly: as §1
Assay [14] addresses Gal(b1-4)GlcNAc(b1-2)[Gal(b1-4)GlcNAc(b1-6)]Man(a1-6)[Gal(b1-4)GlcNAc(b1-2)Man(a1-3)]Man(b1-4)GlcNAc(b1-4)GlcNAc. Put shortly:
as §1

Assay [15] has as its target Gal(b1-4)GlcNAc(b1-2)[Gal(b1-4)GlcNAc(b1-6)]Man(a1-6)[Gal(b1-4)GlcNAc(b1-2)Man(a1-3)]Man(b1-4)GlcNAc(b1-4)[Fuc(a1-6)]GlcNAc. The method in brief:
as §1

In assay [16] the target is Gal(b1-4)GlcNAc(b1-2)[Gal(b1-4)GlcNAc(b1-6)]Man(a1-6)[GlcNAc(b1-4)][Gal(b1-4)GlcNAc(b1-2)Man(a1-3)]Man(b1-4)GlcNAc(b1-4)GlcNAc. Put shortly:
as §1

For assay [17], the target named is Gal(b1-4)GlcNAc(b1-2)[Gal(b1-4)GlcNAc(b1-6)]Man(a1-6)[GlcNAc(b1-4)][Gal(b1-4)GlcNAc(b1-2)[Gal(b1-4)GlcNAc(b1-4)]Man(a1-3)]Man(b1-4)GlcNAc(b1-4)[Fuc(a1-6)]GlcNAc. The method in brief:
as §1

The target in assay [18] is Gal(b1-4)GlcNAc(b1-3)Gal(b1-3)GalNAc. Put shortly: as §1
Assay [19] deals with Gal(b1-4)GlcNAc(b1-3)Gal(b1-3)GlcNAc. The method in brief:
as §1

Some of the results follow.

B1: PX14343G-pdi-535-24-535 (Parabacteroides distasonis) (protein)
chain: LDTVPKDQLAPSTTWQTEADAKGFIVGCYKDLLDGNTLLYLDCGSDIGYNNFPWEGFRPWGDGSLSSSNPGQILYDYKSIRKANTFLENVDKVTFSSDAVKANYVAQAKAIRAYKYFLMNWWYGGVPIISSYSSADEAKVERNTEQEVRDYIAKDLDEALAGIAEAPEARGYIAKGAVLAIKMREALYYGDWQKAKDAAKAIIDLKQYELDPDYTNLFKVSGVDSKEIILADQNIETLDGLGTIGQMYNNVDQGWSSIVPTQNLVDMYEMSDGLTKEESKTYDAKHPFANRDPRMAMTILYPGRDWRGDVLNTLDEKLQDGTVNKNFPTYTDNASKSALTWAKYLDPMDQYGDVWSSGACPIVFRYAEVLLTYAEAANELSGPSDEIYGYLNQIRQRVGMGEVDKAKYGTKDKLRELIRRERTVELAGEGLRRADIVRWQEDGKMLAEKVMNGDLLRVTGTINYGESEPTKRAEITGTAVIETRQFSSRNRYLPIPQTSMDKNPNLKQNPGY
Take B1: the “glycan array binding signal (z-score)” value in assay [1] was -0.363; in assay [2] it was -0.426; in assay [3], -0.515; in assay [4], -0.027; in assay [5] it was -0.997; in assay [6], 0.32. Further, the “glycan array binding signal (z-score)” value in assay [7] is -0.576; in [8], 0.595; in assay [9], 0.38; in [10], -0.511; in [11], -0.46; in assay [12] it was -0.359. The “glycan array binding signal (z-score)” value was -0.759 in assay [13]; -0.615 in assay [14]; 0.224 in assay [15]; -0.27 in assay [16]; -1.17 in assay [17]; -0.478 in assay [18]. Also, the “glycan array binding signal (z-score)” value in [19] is -0.588.
